This passage reports binding results from PMC9975134.

By UniProt entry, the sequences of proteins in these tests, tags left out. Where a name states a change or a piece, a line headed by the entry shows the natural chain unless it says otherwise. Residues count along the entry.
UniProt Q04206: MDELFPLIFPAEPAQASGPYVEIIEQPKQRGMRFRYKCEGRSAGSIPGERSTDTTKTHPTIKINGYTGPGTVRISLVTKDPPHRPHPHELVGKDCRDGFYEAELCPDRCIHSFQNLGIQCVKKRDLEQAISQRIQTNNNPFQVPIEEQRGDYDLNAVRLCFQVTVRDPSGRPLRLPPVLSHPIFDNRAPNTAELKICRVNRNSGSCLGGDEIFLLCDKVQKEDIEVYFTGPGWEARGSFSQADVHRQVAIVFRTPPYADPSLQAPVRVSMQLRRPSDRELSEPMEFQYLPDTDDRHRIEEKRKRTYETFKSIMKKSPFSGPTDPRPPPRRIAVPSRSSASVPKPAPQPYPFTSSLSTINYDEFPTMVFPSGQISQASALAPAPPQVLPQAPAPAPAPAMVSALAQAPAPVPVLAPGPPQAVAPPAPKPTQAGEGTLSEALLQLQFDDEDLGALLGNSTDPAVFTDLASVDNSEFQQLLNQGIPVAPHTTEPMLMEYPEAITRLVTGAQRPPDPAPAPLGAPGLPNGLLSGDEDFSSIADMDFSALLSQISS
UniProt Q9Y6Q9: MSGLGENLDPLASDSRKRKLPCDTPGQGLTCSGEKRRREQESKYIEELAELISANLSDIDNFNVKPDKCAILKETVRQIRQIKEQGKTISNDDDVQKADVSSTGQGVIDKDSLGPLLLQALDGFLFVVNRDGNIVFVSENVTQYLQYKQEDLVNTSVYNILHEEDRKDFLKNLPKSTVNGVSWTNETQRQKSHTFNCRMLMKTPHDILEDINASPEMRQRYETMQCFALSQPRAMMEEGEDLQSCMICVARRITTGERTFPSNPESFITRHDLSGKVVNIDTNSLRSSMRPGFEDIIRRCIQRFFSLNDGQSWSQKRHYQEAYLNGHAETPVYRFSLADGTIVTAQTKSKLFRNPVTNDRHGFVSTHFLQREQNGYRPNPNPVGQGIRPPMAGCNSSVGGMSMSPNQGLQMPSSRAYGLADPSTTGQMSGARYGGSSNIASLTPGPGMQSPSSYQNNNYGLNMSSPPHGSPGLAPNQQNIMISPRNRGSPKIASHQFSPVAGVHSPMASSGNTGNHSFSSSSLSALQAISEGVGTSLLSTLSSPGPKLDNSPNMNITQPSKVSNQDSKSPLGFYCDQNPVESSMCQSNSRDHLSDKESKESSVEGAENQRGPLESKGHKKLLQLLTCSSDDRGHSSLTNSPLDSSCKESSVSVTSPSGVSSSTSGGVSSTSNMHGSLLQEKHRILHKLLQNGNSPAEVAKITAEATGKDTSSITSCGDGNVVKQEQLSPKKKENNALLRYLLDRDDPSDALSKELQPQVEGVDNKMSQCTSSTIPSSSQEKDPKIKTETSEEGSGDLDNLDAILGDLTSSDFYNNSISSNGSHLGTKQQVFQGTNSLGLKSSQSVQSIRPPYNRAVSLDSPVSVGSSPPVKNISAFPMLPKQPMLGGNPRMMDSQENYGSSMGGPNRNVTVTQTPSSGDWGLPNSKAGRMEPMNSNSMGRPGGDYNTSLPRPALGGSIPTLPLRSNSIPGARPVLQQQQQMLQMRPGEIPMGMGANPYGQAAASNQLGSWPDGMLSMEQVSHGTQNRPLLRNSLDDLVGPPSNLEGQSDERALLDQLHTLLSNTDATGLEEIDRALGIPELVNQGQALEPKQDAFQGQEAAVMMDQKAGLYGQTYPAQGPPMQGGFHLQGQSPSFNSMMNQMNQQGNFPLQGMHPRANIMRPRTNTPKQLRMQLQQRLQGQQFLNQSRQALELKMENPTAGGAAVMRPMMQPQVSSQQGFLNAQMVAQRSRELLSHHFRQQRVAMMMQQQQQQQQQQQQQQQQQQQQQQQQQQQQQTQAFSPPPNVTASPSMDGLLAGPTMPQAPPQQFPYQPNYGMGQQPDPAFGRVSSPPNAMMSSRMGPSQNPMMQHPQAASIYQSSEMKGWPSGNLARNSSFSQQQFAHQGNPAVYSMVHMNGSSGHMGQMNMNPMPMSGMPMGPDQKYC
UniProt P19838, residues 1-433: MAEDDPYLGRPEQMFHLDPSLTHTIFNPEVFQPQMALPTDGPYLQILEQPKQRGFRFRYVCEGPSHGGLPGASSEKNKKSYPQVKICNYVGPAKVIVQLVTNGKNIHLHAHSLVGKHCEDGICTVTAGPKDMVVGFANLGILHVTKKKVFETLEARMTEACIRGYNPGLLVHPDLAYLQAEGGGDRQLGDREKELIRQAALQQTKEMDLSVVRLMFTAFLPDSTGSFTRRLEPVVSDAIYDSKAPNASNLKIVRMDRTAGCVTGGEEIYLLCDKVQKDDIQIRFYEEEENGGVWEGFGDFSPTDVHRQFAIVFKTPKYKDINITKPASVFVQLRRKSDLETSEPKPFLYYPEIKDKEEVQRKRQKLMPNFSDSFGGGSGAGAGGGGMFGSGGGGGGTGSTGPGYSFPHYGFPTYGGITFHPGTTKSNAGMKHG
UniProt Q09472: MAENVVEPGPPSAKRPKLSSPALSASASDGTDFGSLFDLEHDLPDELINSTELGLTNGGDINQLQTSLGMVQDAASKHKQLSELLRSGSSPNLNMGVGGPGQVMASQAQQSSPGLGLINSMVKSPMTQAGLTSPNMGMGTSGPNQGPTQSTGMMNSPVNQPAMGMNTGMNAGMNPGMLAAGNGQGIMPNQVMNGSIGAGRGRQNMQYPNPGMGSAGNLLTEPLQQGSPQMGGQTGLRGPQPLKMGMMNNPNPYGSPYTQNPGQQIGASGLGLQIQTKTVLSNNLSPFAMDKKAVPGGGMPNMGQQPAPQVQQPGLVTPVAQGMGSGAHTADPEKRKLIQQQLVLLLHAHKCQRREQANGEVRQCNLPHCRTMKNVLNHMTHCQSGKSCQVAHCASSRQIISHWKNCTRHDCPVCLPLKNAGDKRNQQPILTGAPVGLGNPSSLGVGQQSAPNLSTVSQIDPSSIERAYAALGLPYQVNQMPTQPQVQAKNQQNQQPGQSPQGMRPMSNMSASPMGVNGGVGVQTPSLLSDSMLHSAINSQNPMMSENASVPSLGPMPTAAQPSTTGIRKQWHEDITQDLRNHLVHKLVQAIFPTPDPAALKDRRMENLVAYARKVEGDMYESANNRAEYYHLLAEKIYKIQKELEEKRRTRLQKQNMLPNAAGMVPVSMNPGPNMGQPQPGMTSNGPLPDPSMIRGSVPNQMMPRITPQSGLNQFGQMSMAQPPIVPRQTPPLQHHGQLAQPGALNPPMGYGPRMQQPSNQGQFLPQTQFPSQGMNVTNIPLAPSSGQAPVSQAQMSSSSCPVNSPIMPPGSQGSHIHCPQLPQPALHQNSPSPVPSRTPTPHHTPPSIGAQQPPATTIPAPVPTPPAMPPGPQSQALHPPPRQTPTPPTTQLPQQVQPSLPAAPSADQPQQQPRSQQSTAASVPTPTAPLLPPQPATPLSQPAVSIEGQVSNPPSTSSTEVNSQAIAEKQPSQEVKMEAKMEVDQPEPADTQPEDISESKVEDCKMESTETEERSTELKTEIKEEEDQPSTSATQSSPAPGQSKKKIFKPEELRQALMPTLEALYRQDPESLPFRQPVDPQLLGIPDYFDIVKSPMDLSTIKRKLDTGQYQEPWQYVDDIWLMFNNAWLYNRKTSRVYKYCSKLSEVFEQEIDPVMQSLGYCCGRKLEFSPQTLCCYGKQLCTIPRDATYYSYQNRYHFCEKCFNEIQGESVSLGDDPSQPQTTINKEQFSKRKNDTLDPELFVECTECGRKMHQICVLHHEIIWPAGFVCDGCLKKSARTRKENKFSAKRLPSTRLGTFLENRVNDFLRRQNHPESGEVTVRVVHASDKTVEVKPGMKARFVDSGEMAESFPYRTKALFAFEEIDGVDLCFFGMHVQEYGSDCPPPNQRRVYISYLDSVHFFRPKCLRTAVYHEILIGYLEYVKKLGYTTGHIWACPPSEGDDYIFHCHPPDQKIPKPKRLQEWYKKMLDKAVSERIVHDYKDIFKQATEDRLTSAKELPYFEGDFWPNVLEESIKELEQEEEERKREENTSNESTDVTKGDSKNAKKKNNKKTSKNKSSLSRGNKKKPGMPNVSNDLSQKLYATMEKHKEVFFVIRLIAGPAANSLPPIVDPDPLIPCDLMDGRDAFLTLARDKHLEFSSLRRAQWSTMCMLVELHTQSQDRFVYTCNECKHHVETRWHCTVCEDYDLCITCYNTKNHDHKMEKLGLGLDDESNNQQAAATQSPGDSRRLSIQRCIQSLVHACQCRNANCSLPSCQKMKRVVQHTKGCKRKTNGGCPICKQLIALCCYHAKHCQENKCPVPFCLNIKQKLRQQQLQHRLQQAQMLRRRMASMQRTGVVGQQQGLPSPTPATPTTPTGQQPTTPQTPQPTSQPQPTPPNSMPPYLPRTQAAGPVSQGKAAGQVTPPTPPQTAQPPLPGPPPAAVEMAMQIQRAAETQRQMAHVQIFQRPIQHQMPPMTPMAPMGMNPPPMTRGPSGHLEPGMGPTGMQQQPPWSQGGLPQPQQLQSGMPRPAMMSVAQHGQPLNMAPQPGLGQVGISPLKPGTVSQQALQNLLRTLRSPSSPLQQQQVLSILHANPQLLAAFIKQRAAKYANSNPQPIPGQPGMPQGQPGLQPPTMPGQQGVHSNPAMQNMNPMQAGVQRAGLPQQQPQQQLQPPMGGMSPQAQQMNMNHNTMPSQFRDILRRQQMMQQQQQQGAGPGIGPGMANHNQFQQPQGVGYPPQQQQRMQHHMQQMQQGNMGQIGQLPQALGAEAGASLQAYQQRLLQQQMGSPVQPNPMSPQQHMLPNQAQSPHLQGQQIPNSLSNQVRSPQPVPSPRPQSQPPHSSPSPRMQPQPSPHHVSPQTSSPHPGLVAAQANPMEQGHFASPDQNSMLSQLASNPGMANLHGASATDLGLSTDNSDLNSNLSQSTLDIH

No constants are given. Whether binding was seen depends on the method and setting. Binding seen in cells or lysates may run through a third protein. Some binding calls cover weakened binding; strength is not graded here.

Test [1] addresses Flag-p65 (UniProt Q04206). Kind of test: co-IP; Flag-tagged and Myc-tagged plasmids cotransfected into T47D cells, 48 h; lysis in RIPA buffer with protease inhibitors; immunoprecipitation with anti-Flag agarose; blots with anti-Flag and anti-Myc.
The target in test [2] is Flag-NCOA3 (UniProt Q9Y6Q9). The test is described as above.
For test [3], the target named is RelA/p65 (NF-κB subunit), endogenous (human (endogenous in T47D)) (UniProt Q04206). The test can be described thus: co-IP; endogenous proteins; T47D cell extracts immunoprecipitated with anti-p65-coupled protein A agarose or IgG agarose, blots with anti-p65, anti-p50, anti-p300, anti-NCOA3; also HME1, T47D and BT549 cells treated with 0, 5 or 10 nM E2 for 4 h.
The target in test [4] is NFKB1/p50 (NF-κB subunit), endogenous (human (endogenous in T47D)) (UniProt P19838). The test can be described thus: co-IP; endogenous proteins; cell extracts (MCF-7 by the text, the same T47D extracts by the legend) immunoprecipitated with anti-p50-coupled agarose or IgG agarose, blots with anti-p50, anti-p65, anti-p300, anti-NCOA3.

Take Myc-NCOA3 (from UniProt Q9Y6Q9 1-1424): in test [1], the binding result was “no binding”.

On to Myc-p65 (from UniProt Q04206 1-551), for which the binding result in test [2] is reported as “no binding”.

Regarding Myc-p300 (from UniProt Q09472 1-2414), the binding entry in test [2] is “binds”.

For the substance “NFKB1/p50 (NF-κB subunit), endogenous (from UniProt P19838 1-433)”, the binding entry in test [3] was “binds”.

On to “RelA/p65 (NF-κB subunit), endogenous (from UniProt Q04206 1-551)”, for which the binding entry in test [4] is “binds”.

As for “histone acetyltransferase p300, endogenous (from UniProt Q09472 1-2414)”, the binding entry in test [4] was “binds”.
